# Assay results as given in the supplement of paper PMC8728848.
# This is one part of the list.
# Columns and labels:
# Test in all cases: glycan array binding signal (z-score within array); higher = stronger binding
# Settings in all cases: glycan notation: IUPAC condensed, linker removed
# [1] = molecular target: Neu5Ac(a2-8)Neu5Ac
# Procedure, shortened: (§1)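 The Consortium for Functional Glycomics database supplied 3228 glycan arrays, of which those lacking an available protein sequence were dropped. The binding signal, a within-array Z-score, was averaged across arrays of the same protein sequence and across linkers. Negative scores can be read as non-binding.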
# [2] = molecular target: Neu5Ac(a2-8)Neu5Ac(a2-3)Gal(b1-3)GalNAc(b1-4)[Neu5Ac(a2-3)]Gal(b1-4)Glc
# Procedure, shortened: as §1
# [3] = molecular target: Neu5Ac(a2-8)Neu5Ac(a2-3)Gal(b1-3)GalNAc(b1-4)[Neu5Ac(a2-8)Neu5Ac(a2-3)]Gal(b1-4)Glc
# Procedure, shortened: as §1
# [4] = molecular target: Neu5Ac(a2-8)Neu5Ac(a2-3)Gal(b1-4)Glc
# Procedure, shortened: as §1
# [5] = molecular target: Neu5Ac(a2-8)Neu5Ac(a2-3)Gal(b1-4)GlcNAc
# Procedure, shortened: as §1
# [6] = molecular target: Neu5Ac(a2-8)Neu5Ac(a2-3)[Gal(b1-3)GalNAc(b1-4)]Gal(b1-4)Glc
# Procedure, shortened: as §1
# [7] = molecular target: Neu5Ac(a2-8)Neu5Ac(a2-3)[GalNAc(b1-4)]Gal(b1-4)Glc
# Procedure, shortened: as §1
# [8] = molecular target: Neu5Ac(a2-8)Neu5Ac(a2-8)Neu5Ac
# Procedure, shortened: as §1
# [9] = molecular target: Neu5Ac(a2-8)Neu5Ac(a2-8)Neu5Ac(a2-3)Gal(b1-4)Glc
# Procedure, shortened: as §1
# [10] = molecular target: Neu5Ac(a2-8)Neu5Ac(a2-8)Neu5Ac(a2-3)[Gal(b1-3)GalNAc(b1-4)]Gal(b1-4)Glc
# Procedure, shortened: as §1
# [11] = molecular target: Neu5Ac(a2-8)Neu5Ac(a2-8)Neu5Ac(a2-3)[GalNAc(b1-4)]Gal(b1-4)Glc
# Procedure, shortened: as §1
# [12] = molecular target: Neu5Ac(a2-8)Neu5Ac(a2-8)Neu5Ac(a2-8)Neu5Ac(a2-3)[GalNAc(b1-4)]Gal(b1-4)Glc
# Procedure, shortened: as §1
# [13] = molecular target: Neu5Ac(a2-8)Neu5Gc(a2-3)Gal(b1-4)GlcNAc
# Procedure, shortened: as §1
# [14] = molecular target: Neu5Ac(b2-6)Gal(b1-4)GlcNAc
# Procedure, shortened: as §1
# [15] = molecular target: Neu5Ac(b2-6)GalNAc
# Procedure, shortened: as §1
# [16] = molecular target: Neu5Ac9Ac(a2-3)Gal(b1-3)GlcNAc
# Procedure, shortened: as §1
# [17] = molecular target: Neu5Ac9Ac(a2-3)Gal(b1-4)GlcNAc
# Procedure, shortened: as §1
# [18] = molecular target: Neu5Ac9Ac(a2-6)Gal(b1-4)GlcNAc
# Procedure, shortened: as §1
# [19] = molecular target: Neu5Gc(a2-3)Gal(b1-3)GlcNAc
# Procedure, shortened: as §1
# [20] = molecular target: Neu5Gc(a2-3)Gal(b1-3)[Fuc(a1-4)]GlcNAc
# Procedure, shortened: as §1
# [21] = molecular target: Neu5Gc(a2-3)Gal(b1-4)Glc
# Procedure, shortened: as §1
# [22] = molecular target: Neu5Gc(a2-3)Gal(b1-4)GlcNAc
# Procedure, shortened: as §1
# [23] = molecular target: Neu5Gc(a2-3)Gal(b1-4)GlcNAc(b1-3)Gal(b1-4)GlcNAc(b1-2)Man(a1-3)[Neu5Gc(a2-3)Gal(b1-4)GlcNAc(b1-3)Gal(b1-4)GlcNAc(b1-2)Man(a1-6)]Man(b1-4)GlcNAc(b1-4)GlcNAc
# Procedure, shortened: as §1
# [24] = molecular target: Neu5Gc(a2-3)Gal(b1-4)[Fuc(a1-3)]GlcNAc
# Procedure, shortened: as §1
# [25] = molecular target: Neu5Gc(a2-6)Gal(b1-4)GlcNAc
# Procedure, shortened: as §1
# [26] = molecular target: Neu5Gc(a2-6)GalNAc
# Procedure, shortened: as §1
# [27] = molecular target: Neu5Gc(a2-8)Neu5Ac(a2-3)Gal(b1-4)GlcNAc
# Procedure, shortened: as §1
# [28] = molecular target: Neu5Gc(a2-8)Neu5Gc(a2-3)Gal(b1-4)GlcNAc
# Procedure, shortened: as §1
# [29] = molecular target: Neu5Gc(a2-8)Neu5Gc(a2-3)Gal(b1-4)GlcNAc(b1-3)Gal(b1-4)GlcNAc
# Procedure, shortened: as §1
# [30] = molecular target: Neu5Gc(a2-8)Neu5Gc(a2-6)Gal(b1-4)GlcNAc
# Procedure, shortened: as §1
# [31] = molecular target: Neu5Gc(b2-6)Gal(b1-4)GlcNAc
# Procedure, shortened: as §1
binder,measurement,setting,value
Pwp1 (Candida glabrata) (protein) MGSSHHHHHHSSGLVPRGSHMASANPISITNVCQFPDNWARTAGFQATTVRLGLTIASNTYKELLNYPGLFNFATQKATVTQPNFSISGFPFFTGLYGLTVWPINLLVELQGYFVPPESGNYTFTLQGSDDAAILFFANPSTFACGSQNDWPQPREADITVTDTLVPSRTLYLVKGVAYPIRIAYYNGSGDGKLNVSFKDPSGTTHTDWKGYVWQYSNTCSTCTYT,glycan array binding signal (z-score),[1],-1.47
same,glycan array binding signal (z-score),[2],-1.64
same,glycan array binding signal (z-score),[3],-1.47
same,glycan array binding signal (z-score),[4],0.642
same,glycan array binding signal (z-score),[5],-1.78
same,glycan array binding signal (z-score),[6],0.425
same,glycan array binding signal (z-score),[7],-0.763
same,glycan array binding signal (z-score),[8],-0.5
same,glycan array binding signal (z-score),[9],-0.355
same,glycan array binding signal (z-score),[10],-0.308
same,glycan array binding signal (z-score),[11],0.471
same,glycan array binding signal (z-score),[12],-1.88
same,glycan array binding signal (z-score),[13],0.379
same,glycan array binding signal (z-score),[14],1.03
same,glycan array binding signal (z-score),[15],1.13
same,glycan array binding signal (z-score),[16],-0.103
same,glycan array binding signal (z-score),[17],-0.15
same,glycan array binding signal (z-score),[18],0.801
same,glycan array binding signal (z-score),[19],0.358
same,glycan array binding signal (z-score),[20],0.176
same,glycan array binding signal (z-score),[21],-1.49
same,glycan array binding signal (z-score),[22],0.532
same,glycan array binding signal (z-score),[23],0.839
same,glycan array binding signal (z-score),[24],0.985
same,glycan array binding signal (z-score),[25],-0.738
same,glycan array binding signal (z-score),[26],-1.24
same,glycan array binding signal (z-score),[27],0.812
same,glycan array binding signal (z-score),[28],0.362
same,glycan array binding signal (z-score),[29],0.437
same,glycan array binding signal (z-score),[30],1.17
same,glycan array binding signal (z-score),[31],0.394

# Reformatted with bars between the fields: entries from further up
binder | measurement | setting | value
Pwp1 (Candida glabrata) (protein) MGSSHHHHHHSSGLVPRGSHMASANPISITNVCQFPDNWARTAGFQATTVRLGLTIASNTYKELLNYPGLFNFATQKATVTQPNFSISGFPFFTGLYGLTVWPINLLVELQGYFVPPESGNYTFTLQGSDDAAILFFANPSTFACGSQNDWPQPREADITVTDTLVPSRTLYLVKGVAYPIRIAYYNGSGDGKLNVSFKDPSGTTHTDWKGYVWQYSNTCSTCTYT | glycan array binding signal (z-score) | [25] | -0.738
same | glycan array binding signal (z-score) | [26] | -1.24
